The experiment in a line: qHTS Assay for Lipid Storage Modulators in Drosophila S3 Cells.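 For cell number change: cells counted by Cell Tracker Red CMTPX staining in the red channel.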 The conditions noted are these: BODIPY lipid droplet fluorescence, 18-24 h; for cell number change: measured here: cell count max response, cells fed with added oleic acid. From the text: NIH Molecular Libraries Probe Production Centers Network [MLPCN] NIH Chemical Genomics Center [NCGC] MLPCN Grant: 1 R03 MH085686-01 Assay Submitter (PI): Beller, Mathias; Max-Planck-Institut fur Biophysikalische Chemie NCGC Assay Overview: Storing lipids as a reservoir for energy or the anabolism of elementary metabolites is a common feature of probably all cells and is conserved from bacteria to humans. The universal cellular lipid storage organelle is the so-called lipid storage droplet (LD). Although ubiquitous, LDs share a simple structure composed of a hydrophobic core that harbors the storage lipids, which is shielded by a droplet-specific phospholipid monolayer to which proteins are attached. The current model of LD biogenesis involves an incorporation of the lipid core into the membrane leaflets of the endoplasmic reticulum (ER) followed by a subsequent budding-like maturation of a LD, which ultimately pinches off. Once released, LD volume can increase by localized lipogenesis or fusion of existing droplet. Storage lipids are re-mobilized enzymatically by lipase activity. Lipase regulation in the adipocyte is heavily studied and involves multiple components including catecholamine signaling, the LD-associated proteins Perilipin and comparative gene identification (CGI-58) and at least two lipases named hormone sensitive lipase (HSL) and adipocyte triglyceride lipase (ATGL). LD regulation outside of the adipocyte is poorly understood and only few components are known. However, there is an urgent need to learn more about ectopic fat depots as mislocalized storage of lipids, for example in the liver or muscle, is an eminent health problem associated with insulin resistance or the metabolic syndrome. We developed a laser-scanning cytometer assay to enable 1,536-well screening and combined the results of the small molecules screen with an RNAi database based on lipid storage.
Triacsin C (Sigma-Aldrich T-4540), an inhibitor of long-chain fatty acyl CoA synthetase that blocks synthesis of triglycerides, was used as a positive control for lipid under-storage. A total of 23 nL of compound solution of different concentrations were transferred to the assay plates using a Kalypsys pin tool equipped with a 1,536-pin array containing 10-nL slotted pins (FP1S10, 0.457-mm diameter, 50.8 mm long; V&P Scientific). One microliter of oleic acid (400 uM) was added, and the plate was lidded with stainless steel rubber gasket lined lids containing pinholes. […] Fluorescence was detected by excitation of the fluorophores with a 488-nm laser on an Acumen Explorer (TTP Lab Tech). The total intensity in channel 2 (500-530 nm) reflected lipid droplet accumulation. Cells were detected using channel 3 (575-640 nm) with 5-um width and 100-um depth filters. The ratio of the number of objects in PMT channel 2 over the number of objects in PMT channel 3 was also calculated. Percent activity was computed relative to an internal control (100% inhibited lipid droplet deposition due to the presence of 20 uM Triacsin C), which was added to 32 wells/plate.
A general note: Quantitative high-throughput screening tests each substance at several concentrations.

Setting [1] is: measured here: cell number channel AC50, cells fed with added oleic acid.
Where [2] appears, read: measured here: lipid fluorescence (Fed channel) AC50, cells fed with added oleic acid.

The other results are listed elsewhere or left out. These are further read-outs of the screen, such as a control signal, another cell line or another target. No call is given for them. Most of these compounds were active or inconclusive in the main read-out, so they are no random draw. The note in brackets gives the kind of curve behind each potency; many fits are weak.

As a reminder, the AC50 is the midpoint of the concentration-response curve, whichever way the signal moves. Read a high AC50 as activity only at high concentration.

Consider `Cc1nc2cc(OCc3cc(C(=O)NC(C)c4cn(C)nc4C)no3)ccc2s1` (stereo unspecified), for which the cell number change was 19.8%. Further, the AC50 under setting [1] was 0.651 µM [rising, full curve, poor fit].
As for `O=C(Nc1ccc(CN2CCCCC2)cc1)c1cccc(F)c1`, the cell number change was 90.8%.
As for `Cc1cc(C)n(CC(=O)n2c3c(c4ccccc42)CCCC3)n1`, the cell number change was -50.7%. In addition, the half-maximal activity concentration (AC50) under setting [1] was 29.1 µM [falling, single point]. The half-maximal activity concentration (AC50) under setting [2] is 2.31 µM [rising, partial curve].
For the molecule `COc1ccc2[nH]c(=O)c(CN(C(C)=O)c3ccc(C)cc3C)cc2c1`, the cell number change was -16.8%. Besides, the AC50 under setting [2] is 3.66 µM [falling, partial curve].
Consider `CN(CCOc1ccccc1)C(=O)c1ccc2c(=O)n3c(nc2c1)CCC3`, for which the cell number change was 46.2%. Moreover, the concentration at half-maximal activity (AC50) under setting [1] is 7.31 µM [rising, partial curve]. The concentration at half-maximal activity (AC50) under setting [2] was 6.51 µM [rising, full curve].
For `CC12CCCCC1NS(=O)(=O)OC2` (stereo unspecified), the cell number change was found to be 27.8%. Further, the AC50 under setting [2] is 29.1 µM [rising, single point].
Take `CC(Sc1nnc(-c2ccncc2)n1-c1ccc(F)cc1)C(=O)NC1CC1` (stereo unspecified): the cell number change came to 1.95%. In addition, the AC50 under setting [2] was 0.517 µM [rising, partial curve].
As for `C#CC1(O)CC(C)NCC1(C)CCC#N` (stereo unspecified), the cell number change is -41.9%. Under setting [1], the concentration at half-maximal activity (AC50) is 5.8 µM [falling, full curve].
As to `CC1=C(C(=O)N2CCOCC2)C(c2c(C)cc(C)cc2C)NC(=S)N1` (stereo unspecified), the cell number change was found to be 24.8%. In addition, under setting [2], the concentration at half-maximal activity (AC50) is 0.146 µM [rising, full curve].
In the case of `O=C(O)C1CC=CCC1C(=O)N1CCCC1` (stereo unspecified), the cell number change was -8.75%.
With `Cc1nnc(N2C(=O)C(O)=C(C(=O)c3ccco3)C2c2cccc([N+](=O)[O-])c2)s1` (stereo unspecified), the cell number change came to 18.9%. Under setting [1], the half-maximal activity concentration (AC50) was 4.11 µM [rising, single point]. Besides, under setting [2], the AC50 is 18.4 µM [falling, single point].
Consider `COc1ccc(F)cc1S(=O)(=O)N1CCC(C(N)=O)CC1`, for which the cell number change was -15.3%. Besides, under setting [2], the half-maximal activity concentration (AC50) was 0.366 µM [falling, full curve, poor fit].
On to `COc1ccc(S(=O)(=O)NC(CC(=O)NCc2ccco2)C(C)C)cc1` (stereo unspecified), for which the AC50 under setting [2] was 0.146 µM [falling, full curve, poor fit].
With `COc1ccc(NC(=O)CN2C(=O)COc3ccccc32)cc1OC`, the cell number change was found to be 15.7%.
`O=C(Cc1ccc2c(c1)OCCO2)Nc1ccc(Cl)c(S(=O)(=O)N2CCOCC2)c1`: the cell number change was found to be 13.1%. For the same molecule, the AC50 under setting [2] was 0.731 µM [falling, full curve].
On to `CCCCCCC(O)(c1ccc(OC)cc1)C(CN1CCOCC1)c1ccccc1` (stereo unspecified), for which the cell number change stood at 19.9%. Also, under setting [2], the AC50 is 6.51 µM [rising, single point].
Regarding `CCC(C)NC(=O)C1c2ccccc2C(=O)N1Cc1ccc(F)cc1` (stereo unspecified), the cell number change was -17.7%. The concentration at half-maximal activity (AC50) under setting [2] is 14.6 µM [falling, partial curve, poor fit].
As to `CCOc1ccc(NC(=O)CC2C(=O)N(c3cccc(OC)c3)C(=O)N2CCOC)cc1` (stereo unspecified), the cell number change was 12.7%. The AC50 under setting [2] was 3.26 µM [falling, partial curve].
`CC(C)Oc1ccccc1C1CC(=O)Nc2cc3c(cc21)OCO3` (stereo unspecified): the cell number change was -27.5%. For the same molecule, the AC50 under setting [2] is 5.17 µM [falling, full curve].
With `CCCOc1ccc(C(=O)Nc2ccc(S(=O)(=O)Nc3onc(C)c3C)cc2)cc1`, the cell number change is -25.1%. Also, the concentration at half-maximal activity (AC50) under setting [2] was 9.2 µM [falling, single point].
Turning to `O=C(c1ccccc1)c1nccc2ccccc12`, the half-maximal activity concentration (AC50) under setting [1] was 0.731 µM [rising, single point].
Regarding `Cc1c(C(=O)Nc2nc(-c3ccccn3)cs2)oc2ccccc12`, the cell number change was -59.7%. In addition, the half-maximal activity concentration (AC50) under setting [1] is 20.6 µM [falling, single point]. Moreover, under setting [2], the concentration at half-maximal activity (AC50) was 20.6 µM [falling, partial curve].
For `Cc1noc(C)c1COC(=O)CCc1nc2ccccc2c(=O)[nH]1`, the cell number change worked out at 6.81%. Moreover, the AC50 under setting [2] was 29.1 µM [rising, single point].
Take `Oc1c(/C=N/Nc2cccc3cccnc23)ccc2ccccc12`: the cell number change is -3.81%.
Turning to `CCOc1cccc(OCCOc2ccccc2[N+](=O)[O-])c1`, the cell number change was -18.3%. Moreover, the concentration at half-maximal activity (AC50) under setting [2] is 14.6 µM [rising, partial curve, poor fit].
As to `CCc1cc2c3c(c(=O)oc2cc1OC(C)C(=O)O)CCCC3` (stereo unspecified), the cell number change worked out at 22.8%. For the same molecule, the AC50 under setting [1] is 0.103 µM [rising, full curve, poor fit]. The AC50 under setting [2] is 29.1 µM [rising, single point].
Turning to `CC(=O)c1ccc(NC(=O)c2ccc(N3CCCC3=O)cc2)cc1`, the cell number change was found to be 19.5%.
Take `c1cnc2c(c1)ccc1cccnc12`: the cell number change was -31.8%. Also, the half-maximal activity concentration (AC50) under setting [1] was 32.6 µM [falling, partial curve, poor fit]. For the same molecule, under setting [2], the half-maximal activity concentration (AC50) was 29.1 µM [falling, partial curve, poor fit].
For `NS(=O)(=O)c1ccc(NC(=O)CSc2nc(Nc3ccccc3)nc(N3CCOCC3)n2)cc1`, the cell number change was -8.11%. For the same molecule, the half-maximal activity concentration (AC50) under setting [2] was 0.82 µM [rising, partial curve].
`NC(=O)c1ccsc1NC(=O)COC(=O)Cc1ccsc1`: the AC50 under setting [1] is 3.26 µM [falling, single point].
For the molecule `CC(=O)Nc1c(-c2ccccc2)nc2ncccn12`, the cell number change is -7.99%. The AC50 under setting [2] is 0.0206 µM [falling, full curve, poor fit].
Turning to `CC(OC(=O)c1ccc(NS(=O)(=O)c2ccc3[nH]c(=O)[nH]c3c2)cc1)C(N)=O` (stereo unspecified), the cell number change was found to be 3.95%.
